Data: patent US20110038885A1 (priority 2007, published 2011)

Test: general procedure: Fmoc solid-phase peptide synthesis; Rink Amide MBHA resin (0.58 mmol/g or 0.78 mmol/g); Wang resin for C-terminal acids; DIC/HOBt
Details: whole synthesis, analytical HPLC, scale of the general procedure 0.090 mmol

Substance	purity (crude or final not stated)
Ac-CLD[dP]KQKWIQC-NH2 (disulfide 1-11; SMILES CC[C@H](C)[C@@H]1NC(=O)[C@H](Cc2c[nH]c3ccccc23)NC(=O)[C@H](CCCCN)NC(=O)[C@H](CCC(N)=O)NC(=O)[C@H](CCCCN)NC(=O)[C@H]2CCCN2C(=O)[C@H](CC(=O)O)NC(=O)[C@H](CC(C)C)NC(=O)[C@@H](NC(C)=O)CSSC[C@@H](C(N)=O)NC(=O)[C@H](CCC(N)=O)NC1=O)	88.8%
Ac-CL[dD]PKQKWIQC-NH2 (disulfide 1-11; SMILES CC[C@H](C)[C@@H]1NC(=O)[C@H](Cc2c[nH]c3ccccc23)NC(=O)[C@H](CCCCN)NC(=O)[C@H](CCC(N)=O)NC(=O)[C@H](CCCCN)NC(=O)[C@@H]2CCCN2C(=O)[C@@H](CC(=O)O)NC(=O)[C@H](CC(C)C)NC(=O)[C@@H](NC(C)=O)CSSC[C@@H](C(N)=O)NC(=O)[C@H](CCC(N)=O)NC1=O)	92.1%
Ac-CPKQKWIQC[dD][dL]-NH2 (disulfide 1-9; SMILES CC[C@H](C)[C@@H]1NC(=O)[C@H](Cc2c[nH]c3ccccc23)NC(=O)[C@H](CCCCN)NC(=O)[C@H](CCC(N)=O)NC(=O)[C@H](CCCCN)NC(=O)[C@@H]2CCCN2C(=O)[C@@H](NC(C)=O)CSSC[C@@H](C(=O)N[C@H](CC(=O)O)C(=O)N[C@H](CC(C)C)C(N)=O)NC(=O)[C@H](CCC(N)=O)NC1=O)	90.5%
Ac-C[Ac6c]DPKQKWQC-NH2 (disulfide 1-10; SMILES CC(=O)N[C@H]1CSSC[C@@H](C(N)=O)NC(=O)[C@H](CCC(N)=O)NC(=O)[C@H](Cc2c[nH]c3ccccc23)NC(=O)[C@H](CCCCN)NC(=O)[C@H](CCC(N)=O)NC(=O)[C@H](CCCCN)NC(=O)[C@@H]2CCCN2C(=O)[C@H](CC(=O)O)NC(=O)C2(CCCCC2)NC1=O)	94%
Ac-C[dK]WIQC-NH2 (disulfide 1-6; SMILES CC[C@H](C)[C@@H]1NC(=O)[C@H](Cc2c[nH]c3ccccc23)NC(=O)[C@@H](CCCCN)NC(=O)[C@@H](NC(C)=O)CSSC[C@@H](C(N)=O)NC(=O)[C@H](CCC(N)=O)NC1=O)	99%
Ac-C[dL]DPKQKWIQC-NH2 (disulfide 1-11; SMILES CC[C@H](C)[C@@H]1NC(=O)[C@H](Cc2c[nH]c3ccccc23)NC(=O)[C@H](CCCCN)NC(=O)[C@H](CCC(N)=O)NC(=O)[C@H](CCCCN)NC(=O)[C@@H]2CCCN2C(=O)[C@H](CC(=O)O)NC(=O)[C@@H](CC(C)C)NC(=O)[C@@H](NC(C)=O)CSSC[C@@H](C(N)=O)NC(=O)[C@H](CCC(N)=O)NC1=O)	85.2%
Ac-DCLDPKQKWIQC[dDap]-NH2 (disulfide 2-12; SMILES CC[C@H](C)[C@@H]1NC(=O)[C@H](Cc2c[nH]c3ccccc23)NC(=O)[C@H](CCCCN)NC(=O)[C@H](CCC(N)=O)NC(=O)[C@H](CCCCN)NC(=O)[C@@H]2CCCN2C(=O)[C@H](CC(=O)O)NC(=O)[C@H](CC(C)C)NC(=O)[C@@H](NC(=O)[C@H](CC(=O)O)NC(C)=O)CSSC[C@@H](C(=O)N[C@H](CN)C(N)=O)NC(=O)[C@H](CCC(N)=O)NC1=O)	97.7%
Ac-DKWIQK-NH2 (lactam 1-6; SMILES CC[C@H](C)[C@@H]1NC(=O)[C@H](Cc2c[nH]c3ccccc23)NC(=O)[C@H](CCCCN)NC(=O)[C@@H](NC(C)=O)CC(=O)NCCCC[C@@H](C(N)=O)NC(=O)[C@H](CCC(N)=O)NC1=O)	99%
Ac-DKWIQ[Dab]-NH2 (lactam 1-6; SMILES CC[C@H](C)[C@@H]1NC(=O)[C@H](Cc2c[nH]c3ccccc23)NC(=O)[C@H](CCCCN)NC(=O)[C@@H](NC(C)=O)CC(=O)NCC[C@@H](C(N)=O)NC(=O)[C@H](CCC(N)=O)NC1=O)	99.9%
Ac-DKWIQ[Dap]-NH2 (lactam 1-6; SMILES CC[C@H](C)[C@@H]1NC(=O)[C@H](Cc2c[nH]c3ccccc23)NC(=O)[C@H](CCCCN)NC(=O)[C@@H](NC(C)=O)CC(=O)NC[C@@H](C(N)=O)NC(=O)[C@H](CCC(N)=O)NC1=O)	98.7%
Ac-DKWIQ[Orn]-NH2 (lactam 1-6; SMILES CC[C@H](C)[C@@H]1NC(=O)[C@H](Cc2c[nH]c3ccccc23)NC(=O)[C@H](CCCCN)NC(=O)[C@@H](NC(C)=O)CC(=O)NCCC[C@@H](C(N)=O)NC(=O)[C@H](CCC(N)=O)NC1=O)	97.3%
Ac-EKWIQK-NH2 (lactam 1-6; SMILES CC[C@H](C)[C@@H]1NC(=O)[C@H](Cc2c[nH]c3ccccc23)NC(=O)[C@H](CCCCN)NC(=O)[C@@H](NC(C)=O)CCC(=O)NCCCC[C@@H](C(N)=O)NC(=O)[C@H](CCC(N)=O)NC1=O)	97.3%
Ac-EKWIQ[Dab]-NH2 (lactam 1-6; SMILES CC[C@H](C)[C@@H]1NC(=O)[C@H](Cc2c[nH]c3ccccc23)NC(=O)[C@H](CCCCN)NC(=O)[C@@H](NC(C)=O)CCC(=O)NCC[C@@H](C(N)=O)NC(=O)[C@H](CCC(N)=O)NC1=O)	98.2%
Ac-EKWIQ[Dap]-NH2 (lactam 1-6; SMILES CC[C@H](C)[C@@H]1NC(=O)[C@H](Cc2c[nH]c3ccccc23)NC(=O)[C@H](CCCCN)NC(=O)[C@@H](NC(C)=O)CCC(=O)NC[C@@H](C(N)=O)NC(=O)[C@H](CCC(N)=O)NC1=O)	97.2%
Ac-EKWIQ[Orn]-NH2 (lactam 1-6; SMILES CC[C@H](C)[C@@H]1NC(=O)[C@H](Cc2c[nH]c3ccccc23)NC(=O)[C@H](CCCCN)NC(=O)[C@@H](NC(C)=O)CCC(=O)NCCC[C@@H](C(N)=O)NC(=O)[C@H](CCC(N)=O)NC1=O)	99.2%
Ac-K(Lauroyl)CLDPKQKWIQC-NH2 (disulfide 2-12; SMILES CCCCCCCCCCCC(=O)NCCCC[C@H](NC(C)=O)C(=O)N[C@H]1CSSC[C@@H](C(N)=O)NC(=O)[C@H](CCC(N)=O)NC(=O)[C@H]([C@@H](C)CC)NC(=O)[C@H](Cc2c[nH]c3ccccc23)NC(=O)[C@H](CCCCN)NC(=O)[C@H](CCC(N)=O)NC(=O)[C@H](CCCCN)NC(=O)[C@@H]2CCCN2C(=O)[C@H](CC(=O)O)NC(=O)[C@H](CC(C)C)NC1=O)	99%
Ac-KCLDPKQKWIQC-NH2 (disulfide 2-12; SMILES CC[C@H](C)[C@@H]1NC(=O)[C@H](Cc2c[nH]c3ccccc23)NC(=O)[C@H](CCCCN)NC(=O)[C@H](CCC(N)=O)NC(=O)[C@H](CCCCN)NC(=O)[C@@H]2CCCN2C(=O)[C@H](CC(=O)O)NC(=O)[C@H](CC(C)C)NC(=O)[C@@H](NC(=O)[C@H](CCCCN)NC(C)=O)CSSC[C@@H](C(N)=O)NC(=O)[C@H](CCC(N)=O)NC1=O)	94%
Ac-KKWIQD-NH2 (lactam 1-6; SMILES CC[C@H](C)[C@@H]1NC(=O)[C@H](Cc2c[nH]c3ccccc23)NC(=O)[C@H](CCCCN)NC(=O)[C@@H](NC(C)=O)CCCCNC(=O)C[C@@H](C(N)=O)NC(=O)[C@H](CCC(N)=O)NC1=O)	99.9%
Ac-KKWIQE-NH2 (lactam 1-6; SMILES CC[C@H](C)[C@@H]1NC(=O)[C@H](Cc2c[nH]c3ccccc23)NC(=O)[C@H](CCCCN)NC(=O)[C@@H](NC(C)=O)CCCCNC(=O)CC[C@@H](C(N)=O)NC(=O)[C@H](CCC(N)=O)NC1=O)	74.5%
Ac-LCDPKQKWIQC-NH2 (disulfide 2-11; SMILES CC[C@H](C)[C@@H]1NC(=O)[C@H](Cc2c[nH]c3ccccc23)NC(=O)[C@H](CCCCN)NC(=O)[C@H](CCC(N)=O)NC(=O)[C@H](CCCCN)NC(=O)[C@@H]2CCCN2C(=O)[C@H](CC(=O)O)NC(=O)[C@@H](NC(=O)[C@H](CC(C)C)NC(C)=O)CSSC[C@@H](C(N)=O)NC(=O)[C@H](CCC(N)=O)NC1=O)	93.2%
Ac-LDCPKQKWIQC-NH2 (disulfide 3-11; SMILES CC[C@H](C)[C@@H]1NC(=O)[C@H](Cc2c[nH]c3ccccc23)NC(=O)[C@H](CCCCN)NC(=O)[C@H](CCC(N)=O)NC(=O)[C@H](CCCCN)NC(=O)[C@@H]2CCCN2C(=O)[C@@H](NC(=O)[C@H](CC(=O)O)NC(=O)[C@H](CC(C)C)NC(C)=O)CSSC[C@@H](C(N)=O)NC(=O)[C@H](CCC(N)=O)NC1=O)	95.4%
Ac-LDPCKQKWIQC-NH2 (disulfide 4-11; SMILES CC[C@H](C)[C@@H]1NC(=O)[C@H](Cc2c[nH]c3ccccc23)NC(=O)[C@H](CCCCN)NC(=O)[C@H](CCC(N)=O)NC(=O)[C@H](CCCCN)NC(=O)[C@@H](NC(=O)[C@@H]2CCCN2C(=O)[C@H](CC(=O)O)NC(=O)[C@H](CC(C)C)NC(C)=O)CSSC[C@@H](C(N)=O)NC(=O)[C@H](CCC(N)=O)NC1=O)	78.9%
Ac-LDPKCQKWIQC-NH2 (disulfide 5-11; SMILES CC[C@H](C)[C@@H]1NC(=O)[C@H](Cc2c[nH]c3ccccc23)NC(=O)[C@H](CCCCN)NC(=O)[C@H](CCC(N)=O)NC(=O)[C@@H](NC(=O)[C@H](CCCCN)NC(=O)[C@@H]2CCCN2C(=O)[C@H](CC(=O)O)NC(=O)[C@H](CC(C)C)NC(C)=O)CSSC[C@@H](C(N)=O)NC(=O)[C@H](CCC(N)=O)NC1=O)	86.5%
Ac-LDPKQCKWIQC-NH2 (disulfide 6-11; SMILES CC[C@H](C)[C@@H]1NC(=O)[C@H](Cc2c[nH]c3ccccc23)NC(=O)[C@H](CCCCN)NC(=O)[C@@H](NC(=O)[C@H](CCC(N)=O)NC(=O)[C@H](CCCCN)NC(=O)[C@@H]2CCCN2C(=O)[C@H](CC(=O)O)NC(=O)[C@H](CC(C)C)NC(C)=O)CSSC[C@@H](C(N)=O)NC(=O)[C@H](CCC(N)=O)NC1=O)	82.8%
Ac-QCKWIQC-NH2 (disulfide 2-7; SMILES CC[C@H](C)[C@@H]1NC(=O)[C@H](Cc2c[nH]c3ccccc23)NC(=O)[C@H](CCCCN)NC(=O)[C@@H](NC(=O)[C@H](CCC(N)=O)NC(C)=O)CSSC[C@@H](C(N)=O)NC(=O)[C@H](CCC(N)=O)NC1=O)	81.9%
Ac-[Dab]KWIQD-NH2 (lactam 1-6; SMILES CC[C@H](C)[C@@H]1NC(=O)[C@H](Cc2c[nH]c3ccccc23)NC(=O)[C@H](CCCCN)NC(=O)[C@@H](NC(C)=O)CCNC(=O)C[C@@H](C(N)=O)NC(=O)[C@H](CCC(N)=O)NC1=O)	98.8%
Ac-[Dab]KWIQE-NH2 (lactam 1-6; SMILES CC[C@H](C)[C@@H]1NC(=O)[C@H](Cc2c[nH]c3ccccc23)NC(=O)[C@H](CCCCN)NC(=O)[C@@H](NC(C)=O)CCNC(=O)CC[C@@H](C(N)=O)NC(=O)[C@H](CCC(N)=O)NC1=O)	90%

Bridge positions count the residues as written; N and C are the ends. Square brackets hold non-standard residues; d marks the D form. * marks the point of attachment. Lauroyl = CCCCCCCCCCCC(=O)*; Ac6c = NC1(C(=O)O)CCCCC1; Orn = NCCC[C@H](N)C(=O)O; dDap = NC[C@@H](N)C(=O)O; Dab = NCC[C@H](N)C(=O)O; Dap = NC[C@H](N)C(=O)O
